Data taken from PubChem BioAssay AID1671190 (National Center for Advancing Translational Sciences (NCATS), 2021).
“And” between values parts separate entries of the source, which are not always exact repeats. Equal values may be shown once. The whole screen tested about 580,000 compounds, of which about 6,100 (1.1%) were called active. This list was built around the results that the source calls inconclusive (neither active nor inactive); the mix of calls is not that of the screen. The call rests on the fitted dose curve; in most records, active means well fitted inhibition curve with a large enough effect; inconclusive means small, poorly fitted or top-dose-only effect, or another doubt; inactive means no such curve, though single readings can be large or run the other way. A potency beside an inconclusive call is a rough fit, not a confirmed value.
On the % scale 0 is the no-effect control and ±100 the full control effect; potency means the concentration at half of the fitted maximal effect.

Chains of the proteins cited; added tags and fusions are not shown.
UniProt P18054, whole entry, looked up: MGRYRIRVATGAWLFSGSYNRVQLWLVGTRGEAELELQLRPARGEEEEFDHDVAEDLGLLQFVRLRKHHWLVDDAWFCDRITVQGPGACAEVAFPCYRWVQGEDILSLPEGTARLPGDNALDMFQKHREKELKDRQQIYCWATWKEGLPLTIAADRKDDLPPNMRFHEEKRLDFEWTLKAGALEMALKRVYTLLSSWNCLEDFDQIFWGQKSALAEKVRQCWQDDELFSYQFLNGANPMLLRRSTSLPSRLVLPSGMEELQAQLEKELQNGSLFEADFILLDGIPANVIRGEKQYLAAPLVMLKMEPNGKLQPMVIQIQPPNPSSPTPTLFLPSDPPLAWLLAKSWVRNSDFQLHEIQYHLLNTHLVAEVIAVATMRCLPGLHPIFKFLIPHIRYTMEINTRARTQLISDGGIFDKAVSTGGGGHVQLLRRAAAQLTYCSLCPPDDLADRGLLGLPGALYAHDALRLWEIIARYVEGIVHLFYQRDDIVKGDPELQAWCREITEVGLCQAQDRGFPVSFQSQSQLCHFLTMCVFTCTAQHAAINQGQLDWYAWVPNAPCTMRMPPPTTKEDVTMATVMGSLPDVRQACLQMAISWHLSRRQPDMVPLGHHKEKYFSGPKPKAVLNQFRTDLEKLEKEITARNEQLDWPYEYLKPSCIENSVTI

The compounds below were run against Polyunsaturated fatty acid lipoxygenase ALOX12 (Homo sapiens) (UniProt P18054) (assay: Primary qHTS assay for inhibitors of human arachidonate 12S-lipoxygenase (ALOX12): Round 2). Conditions: purified 12hLO, xylenol orange hydroperoxide absorbance; activity change, negative = inhibition: at 108 µM (top of the series) unless noted.
Procedure, shortened: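 Purified human 12hLO (150 nM final) in 25 mM Hepes, 0.01% Triton X-100, pH 7.0 was preincubated 15 min at room temperature with compound. Then 40 uM arachidonic acid was added, 30 min. Hydroperoxide was read by Fe-XO absorbance ratio 573/405 nm.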
With `O=C(NC(=S)NC1C2CC3CC(C2)CC1C3)C12CC3CC(CC(C3)C1)C2` (stereo not drawn) the Potency was inconclusive: 2.51 µM [inhibitor, full curve, poor fit].
In the case of `COC(=O)C1=C(C)NC(=O)NC1c1ccc(C(=O)OC)cc1` (stereo not drawn), the “activity change, negative = inhibition” value is reported as inactive: 5.7%.
With `Cc1ccc(NC(=O)CNNC(=O)c2cccc([N+](=O)[O-])c2)cc1[N+](=O)[O-]` the Potency was inconclusive: 44.7 µM [inhibitor, partial curve, poor fit].
In the case of `O=C(O)c1cc(-c2cccc3ccccc23)nc2ccccc12`, the “activity change, negative = inhibition” value is reported as inactive: -12.2%.
With `CCN(CC)CCN(C(=O)c1ccco1)c1nc2c(C)cccc2s1` the Potency was inconclusive: 56.2 µM [inhibitor, partial curve, poor fit].
`O=c1oc2c(CN3CCN(CCO)CC3)c(O)ccc2cc1-c1ccccn1` was tested, and the Potency was inconclusive: 25.1 µM [inhibitor, partial curve, poor fit].
In the case of `Cc1cccc(CNC(=O)c2c(C)noc2-c2ccccc2Cl)c1`, the Potency is reported as inconclusive: 28.2 µM [inhibitor, full curve].
In the case of `CNS(=O)(=O)c1ccc(C(=O)N2CCCC2c2ccc3c(c2)OCCCO3)cc1` (stereo not drawn), the “activity change, negative = inhibition” value is reported as inactive: 12.4%.
For `Cc1cc(C(=O)N2CCC(Cc3ccccc3)CC2)c(C)o1`, the Potency was inconclusive: 141 µM [inhibitor, partial curve, poor fit].
For `CN(C)S(=O)(=O)c1cc(NC(=O)CNCc2ccc(F)cc2)ccc1Cl`, the Potency was inconclusive: 0.562 µM [inhibitor, full curve, poor fit].
In the case of `CC(C)c1ccccc1NC(=O)CSc1ccccc1Cl`, the Potency is reported as inconclusive: 44.7 µM [inhibitor, partial curve, poor fit].
`Cc1cc(C)c(C)c(S(=O)(=O)N2CCN(C(=S)NCC3CCCO3)CC2)c1C` (stereo not drawn) was tested, and the “activity change, negative = inhibition” value was inactive: -17.5%.
`O=C(Cn1cnc2ccccc2c1=O)Nc1ccc(-c2nnc3n2CCCCC3)cc1` was tested, and the Potency was inconclusive: 100 µM [inhibitor, partial curve, poor fit].
For `CCOC(=O)C(CNc1ccc(OCc2ccccc2)cc1)NC(=O)c1ccccc1` (stereo not drawn), the Potency was inconclusive: 100 µM [inhibitor, single point].
For `CC(C)c1nc(Cn2cnc3c2c(=O)n(C)c(=O)n3C)cs1`, the Potency was inconclusive: 5.01 µM [inhibitor, full curve, poor fit].
For `OCCC1CN(Cc2cnc(N3CCCC3)s2)CCN1Cc1ccccc1` (stereo not drawn), the Potency was inconclusive: 112 µM [inhibitor, single point].
For `CC1(C)c2[nH]c3ccccc3c2C[C@H]2C(=O)N(Cc3cccc(F)c3)C(=O)N21`, the Potency was inconclusive: 100 µM [inhibitor, single point].
With `O=C(N/N=C/C=C\c1ccco1)c1cccnc1` the Potency was inconclusive: 39.8 µM [inhibitor, partial curve, poor fit].
`CCn1c(N2CCN(CC(N)=O)CC2)nc2c1c(=O)[nH]c(=O)n2C` was tested, and the “activity change, negative = inhibition” value was inactive: -1.51%.
In the case of `S=c1[nH]nc(-c2cc3ccccc3o2)n1Cc1ccccc1`, the Potency is reported as active: 44.7 µM.
`CN1C(C(=O)Nc2ccc(OC(F)(F)F)cc2)=CC(c2ccc3c(c2)OCO3)=NS1(=O)=O` was tested, and the Potency was inconclusive: 89.1 µM [inhibitor, partial curve, poor fit].
For `Cc1cc(C)n2nc(SC(C)C(=O)Nc3c(Cl)cc(Cl)cc3Cl)nc2n1` (stereo not drawn), the Potency was inconclusive: 50.1 µM [inhibitor, partial curve, poor fit].
In the case of `O=C(OCc1ccc([N+](=O)[O-])cc1)c1cc(=O)c2ccccc2o1`, the Potency is reported as inconclusive: 39.8 µM [inhibitor, partial curve, poor fit].
In the case of `Cc1ccc(N(CC(=O)NCc2ccccn2)S(=O)(=O)c2ccccc2)cc1Cl`, the Potency is reported as inconclusive: 44.7 µM [inhibitor, partial curve, poor fit].
For `Cc1cc(C)c(NC(=O)c2ccc3c(c2)NC(=O)C(C)S3)c(C)c1` (stereo not drawn), the “activity change, negative = inhibition” value was inactive: 354%.
With `O=C(Nc1ccc(Cl)cc1)Nc1ccc2n(c1=O)C[C@H]1C[C@@H]2CN(C(=O)c2ccc3ccccc3c2)C1` the Potency was inconclusive: 28.2 µM [inhibitor, full curve, poor fit].
For `COc1ccc(CC2C(=O)N(C)c3ccc(Br)cc32)cc1` (stereo not drawn), the Potency was inconclusive: 56.2 µM [inhibitor, partial curve, poor fit].
`COC(=O)c1cc2oc(C)cc2n1Cc1c(C)cc(C)cc1C` was tested, and the Potency was inconclusive: 100 µM [inhibitor, partial curve, poor fit].
For `COc1ccc(-c2cc3ccc(OCC=C(C)C)cc3oc2=O)c(OC)c1`, the “activity change, negative = inhibition” value was inactive: 14%.
`O=[N+]([O-])c1cccc(C=Nc2cccc3ccccc23)c1O` was tested, and the “activity change, negative = inhibition” value was inactive: 20.7%.
In the case of `COc1cccc(CN[C@H]2[C@H](O)[C@H](O)C[C@@H]2c2ccc(C(F)(F)F)nc2)c1`, the Potency is reported as inconclusive: 126 µM [inhibitor, partial curve, poor fit].
For `COc1cc(CNCCN(C)C)c(Br)cc1OCC(=O)NCc1ccccc1`, the “activity change, negative = inhibition” value was inactive: 0.995%.
With `COCCNC(=O)C1(C)CCCN(CCSc2ccccc2)C1` (stereo not drawn) the Potency was inconclusive: 100 µM [inhibitor, single point].
With `O=C(NCCOc1ccccc1)C1CCCCC1` the “activity change, negative = inhibition” value was inactive: -1.25%.
`CC(=O)Nc1cc(-c2ccc(N3CCN(C)CC3)cc2)cn2c(-c3ccc(F)cc3)cnc12` was tested, and the Potency was inconclusive: 44.7 µM [inhibitor, partial curve, poor fit].
In the case of `Cc1ccc(/C=N/n2c(-c3ccncc3)n[nH]c2=S)o1`, the Potency is reported as inconclusive: 50.1 µM [inhibitor, single point].
With `COc1ccc(C(CC(=O)NCc2ccco2)Sc2n[nH]c(-c3ccc(F)cc3)n2)cc1` (stereo not drawn) the Potency was inconclusive: 35.5 µM [inhibitor, partial curve, poor fit].
In the case of `CCOC(=O)C(C)Sc1nc(-c2cccs2)ccc1C#N` (stereo not drawn), the “activity change, negative = inhibition” value is reported as inactive: -27.4%.
`CCC(=O)N1CCN(c2nc3c(s2)CC(C(=O)Nc2ccc(OC)c(F)c2)CC3)CC1` (stereo not drawn) was tested, and the Potency was active: 25.1 µM.
With `CN1CC(=O)N(C2CCNC2)Cc2c1ncnc2N1CCC(c2ccccc2)CC1` (stereo not drawn) the Potency was inconclusive: 1.6 µM [inhibitor, partial curve].
For `O=C(c1ccncc1)N1CCC2(CC1)CN(c1ccncc1)C2`, the Potency was inconclusive: 31.6 µM [inhibitor, single point].
`Cc1ccc(NC(=O)C(=O)NCC(c2ccc3c(c2)OCO3)N2CCOCC2)c(C)c1` (stereo not drawn) was tested, and the Potency was inconclusive: 44.7 µM [inhibitor, partial curve, poor fit].
For `CNc1ccnc(-c2ccccc2C(F)(F)F)n1`, the Potency was inconclusive: 31.6 µM [inhibitor, partial curve].
`CN(C)CCOc1cccc(Cl)c1` was tested, and the Potency was inconclusive: 0.794 µM [inhibitor, full curve, poor fit].
With `Cc1ccc(S(=O)(=O)CCSc2nc(C)cc(C)c2C#N)cc1` the “activity change, negative = inhibition” value was inactive: 0.888%.
With `CCCSc1nc(C)c(-c2csc(C(C#N)=C3CCCC3)n2)cc1C#N` the Potency was inconclusive: 20 µM [inhibitor, partial curve].
`CC(=O)Nc1ccc(CN2CCN3C(=O)N(Cc4ccccc4)C[C@H]3C2)cc1` was tested, and the Potency was inconclusive: 44.7 µM [inhibitor, partial curve, poor fit].
`CCCN(CCc1ccccc1)C1CCc2c(O)cccc2C1` (stereo not drawn) was tested, and the Potency was inconclusive: 28.2 µM [inhibitor, partial curve].
In the case of `CCOC(=O)CN1C(=O)S/C(=C/C=C/c2ccc(N(C)C)cc2)C1=O`, the Potency is reported as inconclusive: 50.1 µM [inhibitor, partial curve, poor fit].
For `FC(F)(F)c1cc(CCN2C(=S)NC[C@@H]2Cc2ccccc2)cc(C(F)(F)F)c1`, the Potency was inconclusive: 44.7 µM [inhibitor, partial curve, poor fit].
For `Cc1ccc(C)c(S(=O)(=O)Nc2ccc3oc(C)nc3c2)c1`, the Potency was inconclusive: 141 µM [inhibitor, partial curve, poor fit].
In the case of `CCOc1ccccc1Oc1c(C(F)(F)F)oc2cc(OC(=O)c3ccccc3F)ccc2c1=O`, the Potency is reported as inconclusive: 56.2 µM [inhibitor, partial curve, poor fit].
With `CCc1ccc(C2=CC(c3ccccc3C)n3nnnc3N2)cc1` (stereo not drawn) the Potency was inconclusive: 126 µM [inhibitor, single point].
With `O=C(CN(C1CCCCC1)S(=O)(=O)c1ccccc1)NCc1ccco1` the Potency was inconclusive: 56.2 µM [inhibitor, partial curve, poor fit].
`CCOc1ccc(C=NNc2ccc(S(=O)(=O)Nc3ccccc3C(=O)O)cc2[N+](=O)[O-])cc1` was tested, and the Potency was inconclusive: 44.7 µM [inhibitor, partial curve, poor fit].
`COc1ccc(N/C=C2/Sc3ccccc3NC2=O)cc1` was tested, and the “activity change, negative = inhibition” value was inactive: -8.89%.
With `Cc1cc(C(=O)N/N=C2/CC(C)CC(C)(C)C2)c(C)o1` (stereo not drawn) the “activity change, negative = inhibition” value was inactive: -0.629%.
For `NC(=O)c1c(N)sc(=S)n1CC1CCCO1` (stereo not drawn), the Potency was inconclusive: 31.6 µM [inhibitor, single point].
In the case of `Cc1cc(C)n(-c2nc3ccccc3nc2N2CCN(C(=O)c3ccccc3)CC2)n1`, the Potency is reported as inconclusive: 100 µM [inhibitor, partial curve, poor fit].
In the case of `CCCN(CCC)CCNC(=O)c1cc2c(-c3ccccc3F)nn(C)c2s1`, the Potency is reported as inconclusive: 50.1 µM [inhibitor, partial curve, poor fit] and inconclusive: 10 µM [inhibitor, full curve].
`N#Cc1cccc(CN2CCCc3ccccc32)c1` was tested, and the Potency was inconclusive: 7.08 µM [inhibitor, partial curve].
In the case of `Nc1nc(SCc2ccc(Cl)cc2Cl)nc2nc3c(cc12)CCCC3`, the Potency is reported as inconclusive: 89.1 µM [inhibitor, single point].
In the case of `NC(N)=N/N=C/c1ccc(Cl)c(Cl)c1`, the Potency is reported as inconclusive: 39.8 µM [inhibitor, partial curve, poor fit].
